Results as given in PubChem BioAssay AID720535 (National Center for Advancing Translational Sciences (NCATS), 2013).
The campaign covered roughly 1,600 compounds. About 420 (26%) were called active. The inconclusive results got no clear call from the source; some entries with a clear call stand among them for comparison. Calls come from the whole dose curve; as a rule, active = well fitted inhibition curve with a large enough effect; inconclusive = small, poorly fitted or top-dose-only effect; inactive = flat fitted curve, though single readings scatter. Where the call is inconclusive, the potency comes from a doubtful curve fit.
Potency is the fitted concentration of half-maximal effect.

Assay: qHTS for Inhibitors of TGF-b: Cytotox Counterscreen for Cherry Picks; note: nearly all actives have a fitted effect of over 70% in size
Conditions: HepG2 CAGA-GFP viability, ATP luminescence, 18 h, cells stimulated with TGF-beta, 500 pg/mL; activity, negative = cytotoxicity: at 46.1 µM (top of the series)
In short: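 Concentration-response curves were fitted to CellTiter-Glo luminescence and classified by r2, efficacy and activity. Exposure: 18 h, 37 °C, HepG2 CAGA-GFP cells, 500 pg/mL TGF-beta.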
For `Cc1cccc(NC(=O)CSc2n[nH]c(-c3ccncc3)n2)c1`, the Potency was “inactive”. In the case of `Cc1ccc2nc(-c3ccccn3)c(Nc3ccccc3C)n2c1`, the Potency is reported as inconclusive: 2.91 µM [inhibitor, full curve]. With `Oc1c(CN2CCOCC2)cc(COCc2ccccc2)c2cccnc12` the Potency was inconclusive: 3.66 µM [inhibitor, full curve, poor fit]. For `Nc1nc(N)c2c(ccc3c2ccn3Cc2cccc([N+](=O)[O-])c2)n1`, the Potency was active: 0.291 µM. With `Cc1ccc(NC(=O)CN2CCC(Cc3ccccc3)CC2)cc1S(=O)(=O)N(C)C` the Potency was inconclusive: 18.4 µM [inhibitor, single point]. For `NC(=O)c1cccc(-c2ccnc3c2CC(C(=O)Nc2cccc(C(F)(F)F)c2)O3)c1` (stereo not given), the Potency was “inactive”. With `COCCN=C1N[C@@H](c2ccc(Br)cc2)C(C(=O)OC)=C(C)N1Cc1ccccc1` the Potency was inconclusive: 29.1 µM [inhibitor, single point]. In the case of `CN(CC(=O)N1CCN(Cc2ccccc2)CC1)C(=O)Cc1cccc2ccccc12`, the Potency is reported as “inactive”. In the case of `O=C1/C(=C/c2ccccc2[N+](=O)[O-])COc2ccccc21`, the Potency is reported as active: 10.3 µM. For `Clc1ccc(-n2nnnc2Sc2ncnc3sccc23)cc1`, the Potency was active: 16.4 µM. For `COC(=O)c1sc(NC(=O)c2cc(-c3ccccc3)nc3ccccc23)c(C#N)c1C`, the Potency was inconclusive: 1.84 µM [inhibitor, full curve]. In the case of `COc1cc2ccccc2cc1C(=O)Nc1ccc(Cc2ccncc2)cc1`, the Potency is reported as inconclusive: 25.9 µM [inhibitor, single point]. With `O=C(CNC(=S)N(Cc1ccccc1)Cc1ccccc1F)NCc1ccc(Cl)cc1` the Potency was inconclusive: 23.1 µM [inhibitor, single point]. In the case of `Cc1c(C(=O)N2CCN(Cc3ccc4c(c3)OCO4)CC2)sc2ncnc(N3CCN(c4ccccc4F)CC3)c12`, the Potency is reported as “inactive”. For `Cc1c(/C=N\NC(=O)C2COc3ccccc3O2)c2ccccc2n1C` (stereo not given), the Potency was “inactive”. With `CN(C)CCNC(=O)c1ccc(Cl)c2cc3ccccc3nc12` the Potency was active: 2.59 µM. For `CCOc1cc(/C=N/Nc2nc3ccccc3[nH]2)cc(Br)c1OCC(=O)N(C)C`, the Potency was inconclusive: 18.4 µM [inhibitor, single point]. With `C/C(=N\NC(=O)c1ccccc1OCc1ccc(F)cc1)c1ccccn1` the activity, negative = cytotoxicity was inconclusive: -18.7% [inhibitor]. In the case of `CCOC(=O)N/N=C/c1cn(Cc2ccc(Cl)cc2)c2ccccc12`, the Potency is reported as active: 2.59 µM. For `Cc1ccc(NC(=O)c2cc(C(=O)c3cc(Cl)ccc3O)cn(-c3ccc(C)cc3)c2=O)cc1`, the Potency was inconclusive: 13 µM [inhibitor, partial curve]. For `CC(C)N(C(=O)[C@H]1C[C@H](CC(=O)NCC23CC4CC(CC(C4)C2)C3)C(=O)N2CCc3c([nH]c4ccc(Cl)cc34)[C@]12C)C(C)C`, the Potency was inconclusive: 29.1 µM [inhibitor, single point]. With `COc1ccc2nc(Nc3nc(CSc4nc5ccccc5[nH]4)cc(=O)[nH]3)nc(C)c2c1` the Potency was inconclusive: 18.4 µM [inhibitor, single point]. With `C[C@]12c3[nH]c4ccc(Cl)cc4c3CCN1C(=O)[C@@H](CC(=O)NCC13CC4CC(CC(C4)C1)C3)C[C@@H]2C(=O)N1CCOCC1` the Potency was inconclusive: 29.1 µM [inhibitor, single point]. With `O=C(CSc1cccc[n+]1[O-])Nc1ccccc1Oc1ccccc1` the Potency was “inactive”. In the case of `CC1CCCC(C)N1C(=O)Cn1cc(/C=C2/C(=O)Nc3ccccc32)c2ccccc21` (stereo not given), the Potency is reported as “inactive”. For `Cc1ccc(C2(c3ccc(C)cc3)CC2C(=O)Nc2ccc([N+](=O)[O-])cc2O)cc1` (stereo not given), the Potency was active: 8.2 µM. With `O=C(Nc1ccc(N2CCN(C(=O)c3ccc(Cl)cc3)CC2)cc1)c1ccc([N+](=O)[O-])o1` the Potency was active: 16.4 µM. For `COc1ccc(NC(=O)Nc2ccc(O)c3ccccc23)cc1`, the Potency was “inactive”. With `CC(C)(C)S(=O)(=O)/C(C#N)=N/Nc1ccc(Cl)cc1` the Potency was inconclusive: 10.3 µM [inhibitor, partial curve]. For `CC(=O)c1cccc(-c2cnc3c(NC=O)cc(-c4ccc(N(C)C)cc4)cn23)c1`, the Potency was “inactive”. In the case of `CCCN(CCC)Cc1c(C(=O)N/N=C/C(C)=C\c2ccco2)nnn1-c1nonc1N`, the Potency is reported as inconclusive: 5.17 µM [inhibitor, full curve]. In the case of `CCOc1ccc(-n2cc(C(=O)c3cc(Cl)ccc3O)cc(C#N)c2=O)cc1`, the Potency is reported as inconclusive: 32.6 µM [inhibitor, single point]. With `CC(=O)Oc1ccc2ccccc2c1C(NC(=O)Cc1ccccc1)c1ccccc1` (stereo not given) the Potency was inconclusive: 23.1 µM [inhibitor, single point]. For `COc1ccc(C(CNC(=O)c2oc3ccc(OC)cc3c2C)N2CCCC2)cc1` (stereo not given), the Potency was inconclusive: 29.1 µM [inhibitor, single point]. With `CC(C)(C)NS(=O)(=O)c1cccc(S(=O)(=O)c2cccc(S(=O)(=O)NC(C)(C)C)c2)c1` the Potency was inconclusive: 7.31 µM [inhibitor, partial curve]. With `CN(C)C(=O)c1cccc(-c2cnc3sc(NCc4ccc5c(c4)OCO5)nn23)c1` the Potency was inconclusive: 29.1 µM [inhibitor, single point]. With `C[C@H](CO)N1C[C@H](C)[C@@H](CN(C)S(=O)(=O)c2ccccc2)Oc2c(NC(=O)Nc3ccc(C(F)(F)F)cc3)cccc2C1=O` the Potency was inconclusive: 29.1 µM [inhibitor, single point]. With `O=C(c1ccc(Cl)cc1)c1cc([N+](=O)[O-])ccc1N1CCOCC1` the Potency was “inactive”. With `CN(C(=O)c1cccc(NC(=O)Cc2cccc([N+](=O)[O-])c2)c1)C1CCCCC1` the Potency was “inactive”. For `Cc1ccc(NC(=S)NCc2ccccc2)cc1S(=O)(=O)N1CCCCC1`, the Potency was inconclusive: 16.4 µM [inhibitor, partial curve]. With `O=S(=O)(Nc1cc(Sc2ncn[nH]2)c(O)c2ccccc12)c1ccccc1` the Potency was inconclusive: 23.1 µM [inhibitor, single point]. In the case of `Cc1ccc(C)c(S(=O)(=O)Nc2ccccc2C(=O)Nc2cc(C)on2)c1`, the Potency is reported as inconclusive: 29.1 µM [inhibitor, single point]. With `CCCCn1c(NC(=O)c2ccco2)c(S(=O)(=O)c2ccc(C)cc2)c2nc3ccccc3nc21` the Potency was “inactive”. In the case of `O=C(c1ccc(Br)cc1)N(Cc1nc2ccccc2c(=O)[nH]1)C1CCCC1`, the Potency is reported as “inactive”. With `CCSc1nsc(NC(=O)Nc2cccc(F)c2)n1` the Potency was active: 6.51 µM. For `O=C(N/N=C/c1ccc2c(c1)OCO2)c1cc(-c2ccccc2Cl)nc2ccccc12`, the Potency was “inactive”. For `CCOc1ccc(CN2CCN(C(=O)c3cccc4ccccc34)CC2)cc1`, the activity, negative = cytotoxicity was inconclusive: -31.3% [inhibitor]. With `CCCCNc1c(-c2ccc(OC)c(SC3CCCCC3)c2)nc2cc(C)ccn12` the Potency was inconclusive: 23.1 µM [inhibitor, single point]. For `Cc1cc(C)c(S(=O)(=O)Nc2ccc3c4c(cccc24)CC3)c(C)c1`, the Potency was inconclusive: 29.1 µM [inhibitor, single point]. For `CC(C)C[C@@H](CN1CCC[C@@H]1CN1C(=S)NC[C@@H]1Cc1ccc(O)cc1)N1C[C@H](Cc2ccccc2)N(CCc2ccccc2)C1=S`, the Potency was “inactive”. For `CCC(C)Sc1cccc(-c2nc3cc(C)ccn3c2NC2CCCCC2)c1` (stereo not given), the Potency was inconclusive: 23.1 µM [inhibitor, single point]. For `Cc1ccc(-c2ccc3c(c2)O[C@H](CN(C)C(=O)Nc2ccc(C(F)(F)F)cc2)[C@H](C)CN([C@H](C)CO)S3(=O)=O)cc1`, the Potency was inconclusive: 23.1 µM [inhibitor, single point]. For `c1ccc2sc(C3CCN(Cc4nnnn4Cc4ccc5c(c4)OCO5)CC3)nc2c1`, the Potency was “inactive”. For `COc1ccc2[nH]c3c(c2c1)CCN1C(=O)C(CC(=O)NCCC2=CCCCC2)C[C@H](C(=O)N(C(C)C)C(C)C)[C@@]31C` (stereo not given in full), the Potency was “inactive”. With `CCOc1ccc(NCc2nc3ccccc3n2CCOc2ccccc2)cc1` the Potency was “inactive”. With `CC(C)C[C@H]1CNC(=S)N1C[C@H]1CCCN1C[C@H](CC(C)C)N1C[C@H](Cc2ccc(O)cc2)N(CC2CCCCCC2)C1=S` the Potency was inconclusive: 29.1 µM [inhibitor, single point]. In the case of `O=C(NCC(c1ccco1)N1CCCCC1)c1ccc(COc2ccc(Cl)cc2)cc1` (stereo not given), the Potency is reported as inconclusive: 16.4 µM [inhibitor, single point]. In the case of `C=C(C)COc1ccc(-c2[nH]ncc2-c2ccc(OC)cc2)c(O)c1`, the Potency is reported as inconclusive: 29.1 µM [inhibitor, single point]. With `O=C(/C(=N\Nc1ccc([N+](=O)[O-])cc1)Sc1nnnn1-c1ccccc1)c1ccccc1` the Potency was active: 23.1 µM. In the case of `COc1ccccc1NC(=S)N=Nc1c(O)[nH]c2ccc(Br)cc12`, the Potency is reported as inconclusive: 5.8 µM [inhibitor, full curve]. With `CCOc1cc(/C=C2\COc3ccccc3C2=O)cc(Br)c1OCC(=O)N(C)C` the Potency was inconclusive: 29.1 µM [inhibitor, single point]. With `COc1cccc(-c2cnc3c(NC=O)cc(-c4ccc(S(C)(=O)=O)cc4)cn23)c1` the Potency was “inactive”. In the case of `Oc1ccc(C[C@H]2CN([C@@H](Cc3ccc(O)cc3)CN3CCC[C@@H]3CN3C(=S)NC[C@@H]3Cc3ccccc3)C(=S)N2CC2CCCCCC2)cc1`, the Potency is reported as inconclusive: 16.4 µM [inhibitor, single point]. In the case of `Cc1cccc(CN2C(=O)NC(c3ccccc3)(c3ccccc3)C2=O)c1`, the Potency is reported as inconclusive: 18.4 µM [inhibitor, single point]. For `CCSc1nnc(NC(=O)Nc2cccc(C)c2)s1`, the Potency was inconclusive: 16.4 µM [inhibitor, single point].
